According to the supplement of paper PMC10849652:
Some of the results follow.

Protein sequences, listed by entry. Tags and fused reporters are not part of them. Lines headed by an entry give the natural chain unless they say otherwise; changes in a name come on top.
UniProt P20073: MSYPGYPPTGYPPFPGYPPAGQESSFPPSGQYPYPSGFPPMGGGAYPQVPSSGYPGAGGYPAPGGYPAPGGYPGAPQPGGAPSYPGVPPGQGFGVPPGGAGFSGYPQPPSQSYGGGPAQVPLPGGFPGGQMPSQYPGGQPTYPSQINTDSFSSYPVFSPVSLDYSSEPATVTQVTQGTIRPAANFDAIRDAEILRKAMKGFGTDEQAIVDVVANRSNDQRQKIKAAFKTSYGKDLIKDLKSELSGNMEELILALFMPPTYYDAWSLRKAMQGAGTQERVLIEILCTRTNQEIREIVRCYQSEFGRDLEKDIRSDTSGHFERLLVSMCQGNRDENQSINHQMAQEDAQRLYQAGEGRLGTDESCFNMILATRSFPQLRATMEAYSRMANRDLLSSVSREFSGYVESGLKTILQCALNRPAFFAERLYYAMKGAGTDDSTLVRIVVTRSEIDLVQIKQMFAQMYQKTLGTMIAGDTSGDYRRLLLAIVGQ
UniProt Q9Y303: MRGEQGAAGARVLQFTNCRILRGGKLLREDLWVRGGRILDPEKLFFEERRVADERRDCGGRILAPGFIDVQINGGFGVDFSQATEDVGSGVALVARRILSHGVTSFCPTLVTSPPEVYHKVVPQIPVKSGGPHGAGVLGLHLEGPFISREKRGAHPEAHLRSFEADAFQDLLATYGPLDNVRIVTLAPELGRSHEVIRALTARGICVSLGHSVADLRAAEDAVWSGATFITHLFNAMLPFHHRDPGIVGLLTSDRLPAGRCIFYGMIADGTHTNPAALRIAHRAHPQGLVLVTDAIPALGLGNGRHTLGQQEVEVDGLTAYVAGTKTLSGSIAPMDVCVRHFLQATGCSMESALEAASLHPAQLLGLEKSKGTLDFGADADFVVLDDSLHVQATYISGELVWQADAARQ
UniProt P53680: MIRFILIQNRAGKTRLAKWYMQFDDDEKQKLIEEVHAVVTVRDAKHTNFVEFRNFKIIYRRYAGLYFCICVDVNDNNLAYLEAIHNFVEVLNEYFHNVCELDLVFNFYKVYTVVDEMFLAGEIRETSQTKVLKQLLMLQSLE
UniProt Q9NQW6: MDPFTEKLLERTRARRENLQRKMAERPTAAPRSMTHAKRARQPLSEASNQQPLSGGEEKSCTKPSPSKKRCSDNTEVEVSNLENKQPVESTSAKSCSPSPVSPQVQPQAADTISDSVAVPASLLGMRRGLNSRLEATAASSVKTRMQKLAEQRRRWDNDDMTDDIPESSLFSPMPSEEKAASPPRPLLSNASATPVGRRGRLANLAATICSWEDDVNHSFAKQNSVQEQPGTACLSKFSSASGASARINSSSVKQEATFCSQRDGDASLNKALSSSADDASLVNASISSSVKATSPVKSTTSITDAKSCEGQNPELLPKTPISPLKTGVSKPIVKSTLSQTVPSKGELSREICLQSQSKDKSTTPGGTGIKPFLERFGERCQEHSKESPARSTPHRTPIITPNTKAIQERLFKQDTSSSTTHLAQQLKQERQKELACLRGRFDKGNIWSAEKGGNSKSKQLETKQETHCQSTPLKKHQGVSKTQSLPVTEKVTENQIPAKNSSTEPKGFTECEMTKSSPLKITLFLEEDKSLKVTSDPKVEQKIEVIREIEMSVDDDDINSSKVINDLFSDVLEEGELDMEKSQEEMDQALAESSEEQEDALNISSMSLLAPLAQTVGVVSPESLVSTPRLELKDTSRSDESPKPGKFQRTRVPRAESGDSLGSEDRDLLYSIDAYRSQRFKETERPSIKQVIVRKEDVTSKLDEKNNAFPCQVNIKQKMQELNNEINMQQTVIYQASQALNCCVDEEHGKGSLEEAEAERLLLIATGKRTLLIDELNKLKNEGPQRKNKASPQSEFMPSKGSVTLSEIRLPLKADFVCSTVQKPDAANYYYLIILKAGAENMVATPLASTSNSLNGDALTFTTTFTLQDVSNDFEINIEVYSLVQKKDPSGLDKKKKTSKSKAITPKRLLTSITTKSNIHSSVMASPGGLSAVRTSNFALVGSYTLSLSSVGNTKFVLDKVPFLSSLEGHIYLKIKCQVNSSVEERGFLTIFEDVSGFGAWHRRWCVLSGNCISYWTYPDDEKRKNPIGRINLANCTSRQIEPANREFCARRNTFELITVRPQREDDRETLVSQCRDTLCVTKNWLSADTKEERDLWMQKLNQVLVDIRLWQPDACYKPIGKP
UniProt Q8N6D5: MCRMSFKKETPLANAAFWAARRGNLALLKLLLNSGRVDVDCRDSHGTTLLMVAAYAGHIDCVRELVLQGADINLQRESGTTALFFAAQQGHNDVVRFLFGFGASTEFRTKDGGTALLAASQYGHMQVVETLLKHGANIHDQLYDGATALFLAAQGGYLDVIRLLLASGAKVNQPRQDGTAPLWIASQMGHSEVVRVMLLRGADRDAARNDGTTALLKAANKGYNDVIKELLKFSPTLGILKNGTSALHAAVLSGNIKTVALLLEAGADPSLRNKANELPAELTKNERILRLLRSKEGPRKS
UniProt Q96NW4, whole entry, looked up: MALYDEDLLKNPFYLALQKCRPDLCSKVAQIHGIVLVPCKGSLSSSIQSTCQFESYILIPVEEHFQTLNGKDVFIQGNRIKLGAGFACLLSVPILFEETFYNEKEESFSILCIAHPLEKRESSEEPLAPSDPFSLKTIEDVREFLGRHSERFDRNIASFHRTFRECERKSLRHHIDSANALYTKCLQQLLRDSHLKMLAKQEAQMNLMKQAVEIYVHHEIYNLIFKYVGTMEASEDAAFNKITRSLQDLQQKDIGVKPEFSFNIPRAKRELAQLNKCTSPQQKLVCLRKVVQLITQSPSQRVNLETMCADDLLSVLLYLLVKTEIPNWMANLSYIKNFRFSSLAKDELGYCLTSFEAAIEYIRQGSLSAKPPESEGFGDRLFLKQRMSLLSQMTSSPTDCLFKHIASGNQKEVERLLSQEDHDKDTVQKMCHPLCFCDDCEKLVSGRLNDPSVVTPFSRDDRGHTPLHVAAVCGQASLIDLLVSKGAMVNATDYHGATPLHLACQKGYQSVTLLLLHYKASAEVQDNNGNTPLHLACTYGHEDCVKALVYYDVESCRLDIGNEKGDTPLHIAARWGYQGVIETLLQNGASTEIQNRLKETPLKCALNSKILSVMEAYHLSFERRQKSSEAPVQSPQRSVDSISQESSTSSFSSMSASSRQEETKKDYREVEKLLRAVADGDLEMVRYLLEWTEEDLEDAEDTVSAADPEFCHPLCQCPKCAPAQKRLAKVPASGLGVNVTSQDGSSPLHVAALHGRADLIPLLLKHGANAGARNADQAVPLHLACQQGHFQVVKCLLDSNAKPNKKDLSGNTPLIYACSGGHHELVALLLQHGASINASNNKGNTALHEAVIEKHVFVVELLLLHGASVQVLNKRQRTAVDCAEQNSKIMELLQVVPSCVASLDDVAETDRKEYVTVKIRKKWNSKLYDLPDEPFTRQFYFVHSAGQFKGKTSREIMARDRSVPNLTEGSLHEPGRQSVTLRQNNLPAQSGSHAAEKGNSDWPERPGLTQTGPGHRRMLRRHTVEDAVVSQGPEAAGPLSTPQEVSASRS
UniProt P30837: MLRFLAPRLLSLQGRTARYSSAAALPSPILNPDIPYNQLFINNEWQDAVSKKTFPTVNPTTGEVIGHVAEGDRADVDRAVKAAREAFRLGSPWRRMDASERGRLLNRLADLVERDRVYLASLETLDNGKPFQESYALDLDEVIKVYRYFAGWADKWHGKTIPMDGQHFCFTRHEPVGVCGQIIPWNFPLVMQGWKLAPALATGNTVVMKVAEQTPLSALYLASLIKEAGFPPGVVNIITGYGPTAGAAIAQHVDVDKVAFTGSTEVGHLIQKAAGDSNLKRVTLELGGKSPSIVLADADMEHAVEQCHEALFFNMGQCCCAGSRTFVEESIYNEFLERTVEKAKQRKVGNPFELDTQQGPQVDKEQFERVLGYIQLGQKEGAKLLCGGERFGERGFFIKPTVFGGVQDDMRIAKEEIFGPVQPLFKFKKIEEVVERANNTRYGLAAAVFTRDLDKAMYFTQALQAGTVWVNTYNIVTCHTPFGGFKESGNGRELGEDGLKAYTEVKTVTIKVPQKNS
UniProt Q9Y2T2: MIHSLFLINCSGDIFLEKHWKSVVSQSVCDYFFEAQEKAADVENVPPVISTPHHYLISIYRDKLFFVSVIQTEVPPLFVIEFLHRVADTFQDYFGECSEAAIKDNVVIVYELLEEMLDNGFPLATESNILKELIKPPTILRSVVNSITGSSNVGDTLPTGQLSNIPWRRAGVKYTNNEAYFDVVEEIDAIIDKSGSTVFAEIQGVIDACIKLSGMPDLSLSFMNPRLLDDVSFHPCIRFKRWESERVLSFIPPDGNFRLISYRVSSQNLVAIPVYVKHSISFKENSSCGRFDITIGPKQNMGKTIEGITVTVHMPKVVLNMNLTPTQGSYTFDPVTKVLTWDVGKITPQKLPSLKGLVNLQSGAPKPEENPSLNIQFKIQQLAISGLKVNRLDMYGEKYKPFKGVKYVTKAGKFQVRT
UniProt Q6P6B7: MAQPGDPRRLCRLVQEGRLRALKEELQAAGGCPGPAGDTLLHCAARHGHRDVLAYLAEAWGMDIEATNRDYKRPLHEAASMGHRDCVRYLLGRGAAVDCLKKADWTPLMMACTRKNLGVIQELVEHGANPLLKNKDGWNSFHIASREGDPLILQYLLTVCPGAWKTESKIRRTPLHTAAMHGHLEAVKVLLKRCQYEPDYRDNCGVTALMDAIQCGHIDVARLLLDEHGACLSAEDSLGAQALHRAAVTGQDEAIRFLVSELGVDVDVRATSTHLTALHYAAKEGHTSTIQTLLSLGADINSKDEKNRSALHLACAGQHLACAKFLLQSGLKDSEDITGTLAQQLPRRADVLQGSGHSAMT
UniProt P00352: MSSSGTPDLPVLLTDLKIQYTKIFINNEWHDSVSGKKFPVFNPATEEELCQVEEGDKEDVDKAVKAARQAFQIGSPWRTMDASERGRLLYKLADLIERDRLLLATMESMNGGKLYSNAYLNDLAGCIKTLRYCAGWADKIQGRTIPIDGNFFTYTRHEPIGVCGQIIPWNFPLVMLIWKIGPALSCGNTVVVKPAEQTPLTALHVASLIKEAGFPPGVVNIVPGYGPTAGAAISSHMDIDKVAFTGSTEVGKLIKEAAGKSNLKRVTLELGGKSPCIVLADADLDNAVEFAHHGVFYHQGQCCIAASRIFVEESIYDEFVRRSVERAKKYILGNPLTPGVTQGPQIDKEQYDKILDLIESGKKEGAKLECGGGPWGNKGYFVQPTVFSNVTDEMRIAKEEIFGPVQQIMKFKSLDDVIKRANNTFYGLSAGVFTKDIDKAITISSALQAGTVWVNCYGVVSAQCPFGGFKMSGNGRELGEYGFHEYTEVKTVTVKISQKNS
UniProt Q96Q83: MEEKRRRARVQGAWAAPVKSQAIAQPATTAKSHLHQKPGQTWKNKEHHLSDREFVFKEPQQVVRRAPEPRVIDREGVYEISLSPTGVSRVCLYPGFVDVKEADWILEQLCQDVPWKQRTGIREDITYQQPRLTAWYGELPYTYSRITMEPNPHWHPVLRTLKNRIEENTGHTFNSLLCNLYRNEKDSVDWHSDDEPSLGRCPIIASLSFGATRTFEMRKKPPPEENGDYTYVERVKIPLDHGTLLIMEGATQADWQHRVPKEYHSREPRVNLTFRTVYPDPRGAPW
UniProt Q3SY69: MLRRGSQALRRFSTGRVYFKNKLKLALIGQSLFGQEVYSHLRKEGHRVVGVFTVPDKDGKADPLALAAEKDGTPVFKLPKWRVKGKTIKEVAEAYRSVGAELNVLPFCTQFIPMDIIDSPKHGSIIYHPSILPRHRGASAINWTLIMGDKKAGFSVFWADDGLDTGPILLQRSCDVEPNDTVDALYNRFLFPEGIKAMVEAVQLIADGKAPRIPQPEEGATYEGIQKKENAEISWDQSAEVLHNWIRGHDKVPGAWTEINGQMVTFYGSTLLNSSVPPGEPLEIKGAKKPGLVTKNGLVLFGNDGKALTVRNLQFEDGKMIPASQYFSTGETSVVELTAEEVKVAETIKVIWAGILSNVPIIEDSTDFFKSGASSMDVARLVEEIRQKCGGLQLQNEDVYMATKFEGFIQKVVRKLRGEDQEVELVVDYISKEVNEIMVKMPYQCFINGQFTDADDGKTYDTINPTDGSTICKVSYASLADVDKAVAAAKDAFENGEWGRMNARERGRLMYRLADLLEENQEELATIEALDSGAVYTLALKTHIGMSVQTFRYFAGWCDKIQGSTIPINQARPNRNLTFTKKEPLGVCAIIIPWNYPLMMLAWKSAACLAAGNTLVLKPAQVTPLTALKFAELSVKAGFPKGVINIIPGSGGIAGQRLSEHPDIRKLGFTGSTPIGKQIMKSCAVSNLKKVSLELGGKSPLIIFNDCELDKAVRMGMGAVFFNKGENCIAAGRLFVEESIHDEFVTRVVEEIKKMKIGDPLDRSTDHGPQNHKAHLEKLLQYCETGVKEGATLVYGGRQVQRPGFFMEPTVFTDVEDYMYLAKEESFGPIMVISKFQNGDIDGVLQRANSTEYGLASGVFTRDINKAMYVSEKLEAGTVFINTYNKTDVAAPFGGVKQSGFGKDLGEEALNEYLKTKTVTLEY

How the values were obtained:
Assay in all cases: log2 fold change, soluble protein after heating vs DMSO (PISA); higher = thermal stabilisation; K562 lysate, 10 uM; active = over 0.2 and 3.5 SD of the protein, either way, in both replicates (recomputed)
[1] = compound: CS(=O)(=O)CCNCc1ccc(-c2ccc3ncnc(Nc4ccc(OCc5cccc(F)c5)c(Cl)c4)c3c2)o1 [lapatinib]
Summary of the method: (§1)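 Log-two fold change in thermal stability relative to solvent controls is reported from duplicates. For each sample, crude K562 extract from dounce-homogenised pellets in PBS pH 7.4 with 1 mM MgCl2, at 1 mg/mL protein, was treated with 10 μM compound for 30 min. Aliquots heated for 3 min across 48°C-58°C were pooled, brought to 0.5% NP-40 at 4°C and cleared at 21,000xg for 90 min. The supernatant was quantified by TMTpro 16plex LC-MS/MS with channel sums equalised.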

[2] = compound: CS(=O)(=O)N1CCN(Cc2cc3nc(-c4cccc5[nH]ncc45)nc(N4CCOCC4)c3s2)CC1 [pictilisib]
Summary of the method: as §1

[3] = compound: C[C@@H](Oc1cc(-c2cnn(C3CCNCC3)c2)cnc1N)c1c(Cl)ccc(F)c1Cl [crizotinib]
Summary of the method: as §1

[4] = compound: C[C@H](C1=CC=C(C=C1)C(=O)NC2=C3C=CNC3=NC=C2)N
Summary of the method: as §1

[5] = compound: C[C@H](Nc1ncnc2nc[nH]c12)c1cc2cccc(Cl)c2c(=O)n1-c1ccccc1 [duvelisib]
Summary of the method: as §1

[6] = compound: Cc1cc(Nc2cc(CN3CCOCC3)c3nc(C)c(Cc4ccc(Cl)cc4F)n3n2)n[nH]1 [gandotinib]
Summary of the method: as §1

[7] = compound: Cc1cc(Nc2cc(N3CCN(C)CC3)nc(Sc3ccc(NC(=O)C4CC4)cc3)n2)n[nH]1 [tozasertib]
Summary of the method: as §1

[8] = compound: Cc1ccc(-n2nc(C(C)(C)C)cc2NC(=O)Nc2ccc(OCCN3CCOCC3)c3ccccc23)cc1 [doramapimod]
Summary of the method: as §1

[9] = compound: Cc1ccc(NC(=O)c2ccc(CN3CC[C@H](N(C)C)C3)c(C(F)(F)F)c2)cc1Nc1nccc(-c2cncnc2)n1 [bafetinib]
Summary of the method: as §1

[10] = compound: Cc1cccc(CC(=O)N2CCc3c2ccc(-c2cn(C)c4ncnc(N)c24)c3F)n1
Summary of the method: as §1

[11] = compound: Cc1cn(-c2cc(NC(=O)c3ccc(C)c(Nc4nccc(-c5cccnc5)n4)c3)cc(C(F)(F)F)c2)cn1 [nilotinib]
Summary of the method: as §1

[12] = compound: Cc1nc(Nc2n[nH]c3c2CN(C(=O)N[C@H](CN(C)C)c2ccccc2)C3(C)C)c2sccc2n1
Summary of the method: as §1

[13] = compound: Cc1nc(Nc2ncc(C(=O)Nc3c(C)cccc3Cl)s2)cc(N2CCN(CCO)CC2)n1 [dasatinib]
Summary of the method: as §1

[14] = compound: Cc1ncc(-c2ccnc(Nc3ccc(S(C)(=O)=O)cc3)n2)n1C(C)C
Summary of the method: as §1

[15] = compound: Cn1cc(-c2ccc3c(c2)CCN3C(=O)Cc2cccc(C(F)(F)F)c2)c2c(N)ncnc21
Summary of the method: as §1

[16] = compound: Cn1cc(CNCC2CCN(c3ncc(C(=O)NO)cn3)CC2)c2ccccc21 [quisinostat]
Summary of the method: as §1

[17] = compound: Cn1cncc1[C@@](N)(c1ccc(Cl)cc1)c1ccc2c(c1)c(-c1cccc(Cl)c1)cc(=O)n2C [tipifarnib]
Summary of the method: as §1

[18] = compound: NC(=O)Nc1cc(-c2cccc(F)c2)sc1C(=O)N[C@H]1CCCNC1
Summary of the method: as §1

[19] = compound: NC(=O)c1cnc(N[C@@H]2CCCC[C@@H]2N)nc1Nc1cccc(-n2nccn2)c1
Summary of the method: as §1

[20] = compound: NC1(c2ccc(-c3nc4ccn5c(=O)[nH]nc5c4cc3-c3ccccc3)cc2)CCC1
Summary of the method: as §1

Measured: log2 fold change

ANK3 (UniProt Q12955)
inactive: [1] -0.01 | [2] -0.033 | [3] -0.057 | [4] -0.062 | [5] -0.013 | [6] 0.014 | [7] 0.001 | [8] 0.036 | [9] -0.05 | [10] 0.041 | [11] 0.054 | [12] 0.008 | [13] -0.025 | [14] -0.048 | [15] 0.029 | [16] -0.082 | [17] 0 | [18] 0.017 | [19] 0 | [20] -0.011

ANXA7 (UniProt P20073)
inactive: [1] 0.002 | [2] -0.003 | [3] -0.011 | [4] -0.025 | [5] -0.052 | [6] -0.005 | [7] -0.016 | [8] 0.013 | [9] 0.05 | [10] -0.016 | [11] 0.001 | [12] -0.005 | [13] 0.014 | [14] -0.003 | [15] -0.01 | [16] -0.01 | [17] 0.03 | [18] -0.003 | [19] -0.012 | [20] -0.008

AMDHD2 isoform 3 (UniProt Q9Y303)
inactive: [1] 0.014 | [2] -0.081 | [3] 0.025 | [4] 0.006 | [5] -0.043 | [6] 0.008 | [7] -0.013 | [8] 0.003 | [9] 0.093 | [10] 0.009 | [11] 0.011 | [12] -0.076 | [13] -0.043 | [14] -0.027 | [15] 0.026 | [16] 0.035 | [17] 0.01 | [18] -0.011 | [19] -0.022 | [20] 0.002

AP2S1 (UniProt P53680)
inactive: [1] -0.008 | [2] 0.002 | [3] 0 | [4] -0.082 | [5] 0.023 | [6] 0.046 | [7] 0.062 | [8] 0.053 | [9] -0.046 | [10] -0.005 | [11] -0.075 | [12] 0.029 | [13] -0.007 | [14] 0.024 | [15] 0.032 | [16] 0.001 | [17] 0.018 | [18] -0.011 | [19] 0.017 | [20] -0.008

ANLN (UniProt Q9NQW6)
inactive: [1] -0.007 | [2] 0.004 | [3] -0.02 | [4] -0.037 | [5] -0.02 | [6] 0.024 | [7] 0.052 | [8] 0.01 | [9] -0.038 | [10] 0.028 | [11] -0.023 | [12] 0.047 | [13] -0.009 | [14] -0.018 | [15] 0.04 | [16] -0.072 | [17] -0.041 | [18] 0.006 | [19] -0.013 | [20] 0.015

ANKRD29 (UniProt Q8N6D5)
inactive: [1] -0.117 | [2] -0.071 | [3] -0.26 | [4] -0.284 | [5] 0.052 | [6] 0.315 | [7] -0.04 | [8] 0.036 | [9] 0.134 | [10] 0.253 | [11] -0.015 | [12] -0.139 | [13] -0.04 | [14] 0.032 | [15] 0.034 | [16] -0.549 | [17] -0.321 | [18] 0.116 | [19] 0.043 | [20] -0.086

ANKRD27 (UniProt Q96NW4)
inactive: [1] 0.025 | [2] -0.026 | [3] -0.095 | [4] -0.03 | [5] -0.025 | [6] 0.049 | [7] 0.002 | [8] -0.009 | [9] -0.059 | [10] 0.022 | [11] 0.016 | [12] 0.049 | [13] -0.01 | [14] 0.061 | [15] -0.023 | [16] -0.177 | [17] -0.067 | [18] 0.05 | [19] 0.025 | [20] -0.033

ALDH18A1 (UniProt P54886)
inactive: [1] -0.052 | [2] -0.063 | [3] -0.034 | [4] 0.001 | [5] -0.017 | [6] -0.064 | [7] 0.002 | [8] 0.047 | [9] -0.006 | [10] 0.018 | [11] 0 | [12] -0.023 | [13] -0.027 | [14] -0.004 | [15] 0.007 | [16] -0.06 | [17] -0.001 | [18] 0.025 | [19] 0.023 | [20] -0.019

ALDH1B1 (UniProt P30837)
inactive: [1] -0.012 | [2] 0.008 | [3] -0.007 | [4] -0.024 | [5] 0.058 | [6] 0.052 | [7] 0.021 | [8] -0.017 | [9] -0.049 | [10] -0.041 | [11] 0.096 | [12] -0.015 | [13] -0.022 | [14] 0.013 | [15] 0.034 | [16] 0.118 | [17] 0.05 | [18] 0.046 | [19] 0.011 | [20] 0.003

ANKZF1 (UniProt Q9H8Y5)
inactive: [1] -0.012 | [2] 0.029 | [3] -0.025 | [4] -0.008 | [5] -0.01 | [6] -0.03 | [7] 0.019 | [8] 0.013 | [9] 0.007 | [10] 0.036 | [11] -0.003 | [12] -0.018 | [13] -0.007 | [14] 0.025 | [15] 0.016 | [16] -0.023 | [17] -0.047 | [18] 0.021 | [19] 0.008 | [20] -0.021

AP3M1 (UniProt Q9Y2T2)
inactive: [1] 0.002 | [2] 0.006 | [3] -0.02 | [4] -0.045 | [5] 0.021 | [6] 0.042 | [7] 0.017 | [8] 0.02 | [9] -0.041 | [10] 0.056 | [11] 0.001 | [12] -0.001 | [13] -0.032 | [14] -0.005 | [15] 0.007 | [16] 0.015 | [17] 0.008 | [18] 0.018 | [19] -0.005 | [20] 0.006

ANKRD16 (UniProt Q6P6B7)
inactive: [1] -0.084 | [2] 0.147 | [3] -0.046 | [4] -0.165 | [5] 0.048 | [6] -0.084 | [7] -0.094 | [8] 0.006 | [9] -0.055 | [10] 0.133 | [11] 0.073 | [12] -0.038 | [13] -0.028 | [14] -0.011 | [15] -0.02 | [16] -0.141 | [17] 0.2 | [18] 0.054 | [19] -0.371

ALDH1A1 (UniProt P00352)
inactive: [1] 0.002 | [2] -0.068 | [3] 0.004 | [4] 0.05 | [5] -0.023 | [6] -0.111 | [7] -0.006 | [8] -0.015 | [9] 0.061 | [10] -0.164 | [11] 0.036 | [12] -0.019 | [14] -0.012 | [15] -0.04 | [16] 0.015 | [17] 0.019 | [18] 0.014 | [19] -0.011 | [20] 0.034
active: [13] 0.306

ALKBH3 (UniProt Q96Q83)
inactive: [1] -0.025 | [2] -0.022 | [3] 0.018 | [4] 0.089 | [5] 0.004 | [6] -0.059 | [7] 0.066 | [8] -0.03 | [9] -0.076 | [10] -0.021 | [11] -0.024 | [12] 0 | [13] 0.004 | [14] 0.109 | [15] 0.029 | [16] -0.007 | [17] -0.241 | [18] 0.01 | [19] -0.019 | [20] -0.027

Two entries picked at random from the list so far:
AP2S1 (UniProt P53680)
inactive: [1] -0.008 | [2] 0.002 | [3] 0 | [4] -0.082 | [5] 0.023 | [6] 0.046 | [7] 0.062 | [8] 0.053 | [9] -0.046 | [10] -0.005 | [11] -0.075 | [12] 0.029 | [13] -0.007 | [14] 0.024 | [15] 0.032 | [16] 0.001 | [17] 0.018 | [18] -0.011 | [19] 0.017 | [20] -0.008

ANXA7 (UniProt P20073)
inactive: [1] 0.002 | [2] -0.003 | [3] -0.011 | [4] -0.025 | [5] -0.052 | [6] -0.005 | [7] -0.016 | [8] 0.013 | [9] 0.05 | [10] -0.016 | [11] 0.001 | [12] -0.005 | [13] 0.014 | [14] -0.003 | [15] -0.01 | [16] -0.01 | [17] 0.03 | [18] -0.003 | [19] -0.012 | [20] -0.008

Further entries.

ALDH2 (UniProt P05091)
inactive: [1] 0 | [2] 0 | [3] -0.02 | [4] -0.012 | [5] -0.03 | [6] 0.011 | [7] 0.023 | [8] -0.023 | [9] 0.017 | [10] -0.077 | [11] 0.028 | [12] -0.017 | [13] 0.014 | [14] -0.013 | [15] 0.001 | [16] 0.121 | [17] 0.039 | [18] 0.001 | [19] 0.016 | [20] -0.003

ALDH1L2 (UniProt Q3SY69)
inactive: [1] 0.029 | [2] -0.01 | [3] -0.032 | [4] -0.066 | [5] 0.003 | [6] 0.039 | [7] 0.032 | [8] 0.005 | [9] -0.029 | [10] 0.083 | [11] -0.013 | [12] 0.01 | [13] -0.021 | [14] 0.012 | [15] 0.046 | [16] -0.027 | [17] 0.012 | [18] 0.026 | [19] 0.05 | [20] -0.042
